PubChem BioAssay AID1224827, NIAID | 2016
Assay: 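Identify regulators of the macrophage TNF-alpha response to bacterial LPS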 (follow-up of hits). Cell system: RAW264.7 G9 mouse macrophage reporter clone. Reagent: single siRNA against mouse genes, 100 nM siRNA. Duration: siRNA for 2 days, then LPS about 16 h. Conditions: bacterial lipopolysaccharide (LPS), 10 ng/ml, cells fixed after overnight (about 16 h) stimulation. Measurement: 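TNF promoter reporter red fluorescence in nuclei, background subtracted, normalised per plate and to non-targeting control siRNA, as z-scores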. Direction: TNF reporter z-score, mean: higher = stronger Tnf promoter reporter signal. Rule for the call: 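An siRNA is called active when its mean z-score over replicates is at least +2 or at most -2; control wells get no call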.
In all, the deposit lists about 3,800 reagents; below is a part drawn at random. In the full data, about 2,200 (57%) got an active call. 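Active means a strong reporter change in either direction; calls are per siRNA, not per gene; qiagen siRNAs gave weaker effects.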 A number with no mark means an inactive call. The numbers tell different reagents against one gene apart. Further read-outs or replicates are left out here.

| Gene | reagent | TNF reporter z-score, mean |
| --- | --- | --- |
| Xrcc5 (X-ray repair complementing 5) | 1 | -1.65 |
| Xrcc5 (X-ray repair complementing 5) | 2 | -2.82 (active) |
| Xrcc5 (X-ray repair complementing 5) | 3 | -3.25 (active) |
| Xrcc5 (X-ray repair complementing 5) | 4 | 3.51 (active) |
| Xrcc5 (X-ray repair complementing 5) | 5 | -0.0733 |
| Xrcc5 (X-ray repair complementing 5) | 6 | -0.354 |
| Ndufaf4 (NADH:ubiquinone oxidoreductase complex assembly factor 4) | 1 | -1.02 |
| Ndufaf4 (NADH:ubiquinone oxidoreductase complex assembly factor 4) | 2 | -4.07 (active) |
| Ndufaf4 (NADH:ubiquinone oxidoreductase complex assembly factor 4) | 3 | -5.17 (active) |
| Ndufaf4 (NADH:ubiquinone oxidoreductase complex assembly factor 4) | 4 | 3 (active) |
| Ndufaf4 (NADH:ubiquinone oxidoreductase complex assembly factor 4) | 5 | 1.1 |
| Ndufaf4 (NADH:ubiquinone oxidoreductase complex assembly factor 4) | 6 | -0.545 |

Continued, starting with the last 2 of the part before.
| Gene | reagent | TNF reporter z-score, mean |
| --- | --- | --- |
| Ndufaf4 (NADH:ubiquinone oxidoreductase complex assembly factor 4) | 5 | 1.1 |
| Ndufaf4 (NADH:ubiquinone oxidoreductase complex assembly factor 4) | 6 | -0.545 |
| Hoxa2 (homeobox A2) | 1 | -3.06 (active) |
| Hoxa2 (homeobox A2) | 2 | -4.26 (active) |
| Hoxa2 (homeobox A2) | 3 | -5.47 (active) |
| Hoxa2 (homeobox A2) | 4 | 3.23 (active) |
| Hoxa2 (homeobox A2) | 5 | -0.865 |
| Hoxa2 (homeobox A2) | 6 | -4.34 (active) |
| E130006D01Rik (RIKEN cDNA E130006D01 gene) | 1 | -1.18 |
| E130006D01Rik (RIKEN cDNA E130006D01 gene) | 2 | -1.42 |
| E130006D01Rik (RIKEN cDNA E130006D01 gene) | 3 | -3.55 (active) |
| E130006D01Rik (RIKEN cDNA E130006D01 gene) | 4 | 0.102 |
| E130006D01Rik (RIKEN cDNA E130006D01 gene) | 5 | -1.34 |
| E130006D01Rik (RIKEN cDNA E130006D01 gene) | 6 | -2.29 (active) |
| H2ac25 (H2A clustered histone 25) | 1 | 1.88 |
| H2ac25 (H2A clustered histone 25) | 2 | 1.54 |
| H2ac25 (H2A clustered histone 25) | 3 | -0.29 |
| H2ac25 (H2A clustered histone 25) | 4 | 1.8 |
| H2ac25 (H2A clustered histone 25) | 5 | -0.0799 |
| H2ac25 (H2A clustered histone 25) | 6 | -2.41 (active) |
